23 sequences from publication PMC7819943, “Rice protein-binding microarrays: a tool to detect cis-acting elements near promoter regions in rice” can be followed below.

By UniProt entry, the sequences of proteins in these tests, tags left out.
UniProt Q0JBA9, entry or part of it: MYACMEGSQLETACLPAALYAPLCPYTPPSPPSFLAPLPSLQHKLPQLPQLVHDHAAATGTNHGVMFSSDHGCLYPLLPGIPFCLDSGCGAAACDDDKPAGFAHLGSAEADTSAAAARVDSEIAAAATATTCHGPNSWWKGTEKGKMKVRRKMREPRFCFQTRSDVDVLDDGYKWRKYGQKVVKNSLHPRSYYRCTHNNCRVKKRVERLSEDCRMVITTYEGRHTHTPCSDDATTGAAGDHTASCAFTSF

Some of the results follow.

The test deals with OsWRKY34 (Oryza sativa, UniProt Q0JBA9 1-250). Kind of test: protein-binding microarray (RPBM); PBS, 2% BSA, 51.3 ng/ul salmon testes DNA, 50 uM zinc acetate, 200 nM TF, 25 C, 1 h; high values mean tight binding. The note with it: protein: recombinant; tags: N-terminal polyhistidine and DsRed monomer fusion (pET32a); label: CyDye5-dUTP incorporated in the synthesized complementary strand; 3' TTTTT single-stranded linker to array surface; dsDNA, one strand shown. Put shortly:
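Binding signal is defined as the fluorescence intensity of each feature in arbitrary units, read on an Axon 4000B scanner. Transcription factors with N-terminal polyhistidine and DsRed fusions came from E. coli BL21-CodonPlus and were purified on Ni–NTA. They were incubated at 200 nM for 1 h at 25 °C on a custom Agilent array that had been made double-stranded with Cy5-dUTP, with 50 µM zinc acetate present, and the array was washed.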
For the sequence “GTCGGCTGCCTTTTGAAGCTCTCATGACGCATCTTCCTTTCGGAGTCACCTAGTGCAG”, the binding signal was 8720 fluorescence intensity (a.u.). Take “GAGCTATCCTTGGTTTTTCTGATCCACTGCATGCGCTAGTCGGAGTCACCTAGTGCAG”: the binding signal was 8830 fluorescence intensity (a.u.). For “CGTTTGCTGCGTTATCACCTCTCCTTGGCTCTTCTCTTATCGGAGTCACCTAGTGCAG” the value was 8740 fluorescence intensity (a.u.); for “GTTCATTTACTCATTTTTCTGTGGTTGAAAAATACCAAGACGGAGTCACCTAGTGCAG”, 10200 fluorescence intensity (a.u.); for “GCCGCCAACGCGCTCAAGGGCCACCTCGTCGCCTTCGGCCCGGAGTCACCTAGTGCAG”, 8160 fluorescence intensity (a.u.). As for “CACACGGCGACCTCATCGGCTCATCCTCCTCGATTCCGGCCGGAGTCACCTAGTGCAG”, the binding signal is 8350 fluorescence intensity (a.u.). For “CTCTCTCTCTCTCTCTCTCTCTGCTGTTTTCTGTATCTGACGGAGTCACCTAGTGCAG” the value was 10100 fluorescence intensity (a.u.); for “GTAAGGTTTAGTTATAAAAATTTTTTCACCGGGTTTCTGACGGAGTCACCTAGTGCAG”, 11000 fluorescence intensity (a.u.). With “GCGTTCGTTCCATCCAACACTACAGAAATTTTTAGCGCACCGGAGTCACCTAGTGCAG” the figure was 8130 fluorescence intensity (a.u.); with “CGCCGCTGTATCTCCTAGCCCAGGCTGCCCAGCTCTGACACGGAGTCACCTAGTGCAG”, 8150 fluorescence intensity (a.u.). For “GGTGGCGCTGCCGCGGTTGACCAATTCTTGTTTCCCGGCTCGGAGTCACCTAGTGCAG”, the binding signal is 10500 fluorescence intensity (a.u.). “CTCTTCATGTCGCCGGCACATATCCACCACCGGCTCCAACCGGAGTCACCTAGTGCAG”: the binding signal was 8890 fluorescence intensity (a.u.). Turning to “GGTTCCTCAGTAGTGTGTGTTGTCTGTGCGTGAGCTCCCACGGAGTCACCTAGTGCAG”, the binding signal is 13000 fluorescence intensity (a.u.). On to “AATCACTAGTTCCTGTTCTGTACTTTTGAGGGAGAGTCGACGGAGTCACCTAGTGCAG”, for which the binding signal was 8290 fluorescence intensity (a.u.). Regarding “GGATCTCGCATCTCCTCTTAACCATGGGCTGTGAGCGACGCGGAGTCACCTAGTGCAG”, the binding signal is 8530 fluorescence intensity (a.u.). For “CCTCTCCTCTTCTTCTCTCTTCACTCGTGTTGAAATTGAACGGAGTCACCTAGTGCAG” the value was 8450 fluorescence intensity (a.u.). Take “CTCTTTTCTGCTGTACGATCATTCAGTATCCACGTGCTTACGGAGTCACCTAGTGCAG”: the binding signal is 8880 fluorescence intensity (a.u.). For “ATTTCCCGACCTTATAGCAGGTACAATAACAGACTATTAGCGGAGTCACCTAGTGCAG”, the binding signal is 8380 fluorescence intensity (a.u.). Consider “GCTGAGTCTATGGTTTTTGTGGGCCATTGTGCTATCGATGCGGAGTCACCTAGTGCAG”, for which the binding signal was 9850 fluorescence intensity (a.u.).

Take “GGTGAGCTGGCTTTTCCACACTTCTAATTTCCTAAACTCACGGAGTCACCTAGTGCAG”: the binding signal is 8810 fluorescence intensity (a.u.). Take “CTCGTCTCCTCCGCTCCTTGCGCCATCTCGCGGCTGAACACGGAGTCACCTAGTGCAG”: the binding signal is 9180 fluorescence intensity (a.u.). With “ACCCGCATAAAAACCCTCTTGTTAGTGTATTTTCTACCTGCGGAGTCACCTAGTGCAG” the figure was 8730 fluorescence intensity (a.u.). Regarding “CGCTTGTGTTATTTGTCAGTTTACCATCTCAGTTTTCTTACGGAGTCACCTAGTGCAG”, the binding signal is 9080 fluorescence intensity (a.u.).
